In the supplement of paper PMC10689618:
This is one part of the list. Repeats are few or missing, and single values can be far off.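 Primary human fetal astrocytes engulfed labelled rat cortical synaptosomes, measured as a red/green ratio corrected for calcein live-cell signal and scaled to the plate median. Toxicity meant calcein falling over 30%; decreased phagocytosis meant below 70% of median above 5 µM.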

Tests used:
[1] = test system: Human fetal astrocytes; experiment: loss of total cells relative to no-compound high-control median (toxicity); higher = more toxic (fewer cells); conditions: 24 h
[2] = test system: Human fetal astrocytes; experiment: synaptosome phagocytosis (pHrodo/calcein intensity ratio) relative to plate median of data wells; higher = more phagocytosis; conditions: 24 h

Structure (SMILES) | loss of total cells ([1]; 1.39 µM) [%] | loss of total cells ([1]; 2.78 µM) [%] | loss of total cells ([1]; 5.56 µM) [%] | loss of total cells ([1]; 11.11 µM) [%] | loss of total cells ([1]; 22.22 µM) [%] | synaptosome phagocytosis ([2]; 1.39 µM) [%] | synaptosome phagocytosis ([2]; 2.78 µM) [%] | synaptosome phagocytosis ([2]; 5.56 µM) [%] | synaptosome phagocytosis ([2]; 11.11 µM) [%] | synaptosome phagocytosis ([2]; 22.22 µM) [%]
CC(C)c1cc2c(c(O)c1O)[C@@]1(C(=O)O)CCCC(C)(C)[C@@H]1CC2 | -1.6 | 10.5 | -0.7 | 19.6 | 24.4 | 109 | 102 | 127 | 76.1 | 88
CC(Oc1ccc(Cl)cc1Cl)C(=O)O (stereo not given) | 21.3 | 1.1 | 10.9 | 2.1 | 0 | 73.7 | 70.1 | 83.2 | 105 | 42.9
O=c1ccc2cc(O[C@@H]3O[C@H](CO)[C@@H](O)[C@H](O)[C@H]3O)c(O)cc2o1 | 12.6 | 4 | 21 | -12.1 | 10.6 | 115 | 92.4 | 121 | 97 | 122
COc1ccc(C(CN(C)C)C2(O)CCCCC2)cc1 (stereo not given) | -41.9 | 26.2 | 13 | 44.3 | 3.4 | 56.2 | 122 | 87.6 | 118 | 85
O=P1(N(CCCl)CCCl)NCCCO1 (stereo not given) [Cyclophosphamide monohydrate] | -8 | -28.8 | -30 | -10.7 | 28.3 | 119 | 124 | 122 | 116 | 106
Cc1ccc(O)cc1.Cc1cccc(O)c1.Cc1ccccc1O | 10.4 | -28.8 | -22.3 | -6.6 | -5.2 | 116 | 124 | 136 | 136 | 106
COc1cc2c(cc1-c1cc3cc4ccoc4cc3oc1=O)OCO2 | 4.7 | -3.3 | 33.6 | 5.8 | 6.3 | 108 | 57.6 | 126 | 104 | 141
CC(N)C(O)c1ccccc1 (stereo not given) | -16.3 | -3.7 | -20.2 | -14.1 | 30.1 | 118 | 96 | 129 | 106 | 110
CN(C)[C@@H]1C(=O)C(C(N)=O)=C(O)[C@@]2(O)C(=O)C3=C(O)c4c(O)cccc4[C@@](C)(O)[C@H]3[C@H](O)[C@@H]12 | -0.8 | -0.3 | -5.7 | -15.6 | 3.4 | 83.4 | 92 | 98.6 | 106 | 108
CN[C@@H]1[C@@H](O)[C@@H](O[C@@H]2[C@@H](O)[C@H](O[C@H]3O[C@H](CN)CC[C@H]3N)[C@@H](N)C[C@H]2N)OC[C@]1(C)O.CN[C@@H]1[C@@H](O)[C@@H](O[C@@H]2[C@@H](O)[C@H](O[C@H]3O[C@H]([C@@H](C)N)CC[C@H]3N)[C@@H](N)C[C@H]2N)OC[C@]1(C)O.CN[C@@H]1[C@@H](O)[C@@H](O[C@@H]2[C@@H](O)[C@H](O[C@H]3O[C@H]([C@@H](C)NC)CC[C@H]3N)[C@@H](N)C[C@H]2N)OC[C@]1(C)O | 0.3 | -29.5 | -4.2 | 14.1 | 10 | 146 | 97.9 | 95.1 | 105 | 95.5
C[C@]12C=CC(=O)C=C1CC[C@@H]1[C@@H]2CC[C@]2(C)C(=O)CC[C@@H]12 | 1.6 | -7.6 | -1.5 | 2 | 18.5 | 151 | 103 | 109 | 86.6 | 122
CC(C)=CCC[C@]1(C)C=Cc2c(O)c3c(c(CC=C(C)C)c2O1)O[C@]12C(=C[C@@H]4C[C@H]1C(C)(C)O[C@@]2(C/C=C(/C)C(=O)O)C4=O)C3=O | -16.3 | 15.9 | 63.4 | 98.7 | 99.6 | 38.2 | 23.2 | 5.4 | 0 | 0
CC(C)(O)[C@@H]1[C@H]2OC(=O)[C@@H]1[C@]1(O)C[C@H]3O[C@]34C(=O)O[C@H]2[C@]14C (relative stereo) | -28.6 | -2.7 | -3.8 | 0 | 2.6 | 133 | 106 | 80.8 | 123 | 89.3
C[C@@H](CO)NC(=O)[C@@H]1C=C2c3cccc4[nH]cc(c34)C[C@H]2N(C)C1 | -2.1 | -14.6 | -0.7 | -0.9 | -11.2 | 89.6 | 78.6 | 94.5 | 93.7 | 112
C=CCN1CC[C@]23c4c5ccc(O)c4O[C@H]2C(=O)CC[C@@]3(O)[C@H]1C5 | -29.9 | -22.9 | -20.1 | -13.3 | 5.7 | 99.7 | 108 | 106 | 111 | 123
CC[N+]1(C)CCCC(OC(=O)C(O)(c2ccccc2)c2ccccc2)C1 (stereo not given) | 6.9 | 10.5 | 5.1 | -10.5 | 0.8 | 127 | 123 | 105 | 81.9 | 102
CC(C)C[C@H]1C(=O)N2CCC[C@H]2[C@]2(O)O[C@](NC(=O)[C@@H]3C=C4c5cccc6[nH]c(Br)c(c56)C[C@H]4N(C)C3)(C(C)C)C(=O)N12 | -1.7 | -7.6 | 6.3 | -2.3 | 10.2 | 101 | 114 | 130 | 92.8 | 47.9
C=C(C)c1cc2cc(C(C)=O)c(O)cc2o1 | -9.1 | -10 | 27.5 | 45.2 | -35.9 | 90.1 | 138 | 121 | 137 | 82.1

Structure (SMILES) | loss of total cells ([1]; 1.39 µM) [%] | loss of total cells ([1]; 2.78 µM) [%] | loss of total cells ([1]; 5.56 µM) [%] | loss of total cells ([1]; 11.11 µM) [%] | loss of total cells ([1]; 22.22 µM) [%] | synaptosome phagocytosis ([2]; 1.39 µM) [%] | synaptosome phagocytosis ([2]; 2.78 µM) [%] | synaptosome phagocytosis ([2]; 5.56 µM) [%] | synaptosome phagocytosis ([2]; 11.11 µM) [%] | synaptosome phagocytosis ([2]; 22.22 µM) [%]
NCC1(CC(=O)O)CCCCC1 | -27.9 | 8.6 | 28.2 | -12.9 | 14.4 | 77.5 | 109 | 115 | 85.6 | 131
CC1=C2[C@H]3OC(=O)[C@@H](C)[C@@H]3CC[C@@]2(C)C=CC1=O | -13.1 | -12.6 | 2.2 | 14.9 | 11.9 | 93 | 74.6 | 121 | 157 | 116
CC[C@H]1CN2CCc3cc(OC)c(OC)cc3[C@@H]2C[C@@H]1C[C@H]1NCCc2cc(OC)c(OC)cc21 | 13.4 | -5.8 | -0.7 | 31.4 | 50.2 | 53.9 | 38 | 19.5 | 26 | 54.4
O=c1cccc2n1C[C@@H]1CNC[C@H]2C1 | 11.2 | 26.4 | 10.9 | 13.8 | 11.4 | 112 | 83.6 | 114 | 131 | 82
Oc1ccc(Cl)cc1 | -32.4 | -11.9 | 3.3 | 18 | 21 | 131 | 91.5 | 124 | 105 | 127
COc1cc(OC)c2c(c1)O[C@H](c1ccc(OC)c(OC)c1)[C@@H](O)C2 [2-(3,4-dimethoxyphenyl)-5,7-dimethoxy-3-chromanol] | -18.5 | 5.3 | -16 | -6.5 | -15.2 | 80.4 | 112 | 71.7 | 91.1 | 124
C[C@H](N)[C@H](O)c1ccc(O)c(O)c1 | 6.2 | -4.4 | -7 | 2 | 0.3 | 83.7 | 89 | 86.8 | 96.1 | 84
COc1cc2c(cc1O)C[C@H]1c3c(cc(O)c(OC)c3-2)CCN1C | -22.1 | -5.4 | 8.1 | 10.1 | 5.2 | 110 | 69.9 | 102 | 91.2 | 77.5
O=C(O)CF | -2.5 | 1.8 | 10.9 | -17.2 | -4.5 | 90.9 | 100 | 84.8 | 118 | 131
C[C@@H]1CC[C@@]2(OC1)O[C@H]1[C@@H](O)[C@H]3[C@@H]4CC[C@H]5C[C@@H](O[C@@H]6O[C@H](CO)[C@H](O[C@@H]7O[C@H](CO)[C@@H](O)[C@H](O[C@@H]8OC[C@@H](O)[C@H](O)[C@H]8O)[C@H]7O[C@@H]7O[C@H](CO)[C@H](O)[C@H](O[C@@H]8O[C@H](CO)[C@@H](O)[C@H](O)[C@H]8O)[C@H]7O)[C@H](O)[C@H]6O)[C@H](O)C[C@]5(C)[C@H]4CC[C@]3(C)[C@H]1[C@@H]2C | -28.6 | 4 | -5.3 | 3.2 | 0.4 | 85.7 | 113 | 103 | 100 | 71.6
O=C1CN=C(c2ccccc2Cl)c2cc([N+](=O)[O-])ccc2N1 | -21.4 | -2 | 26 | -13.5 | -16.7 | 92.5 | 106 | 136 | 83.4 | 98.4
CCC1(CC)C(=O)C=CNC1=O | 5.4 | 1.8 | 5.8 | -9.6 | 19.7 | 70.8 | 96.4 | 84.4 | 99.3 | 89.8
C/C=C/c1ccc2c(c1)OCO2 | -20.5 | 4.7 | 13.9 | 20.3 | 0.7 | 104 | 58.1 | 117 | 142 | 94.4
CC(=O)O[C@H]1C(=O)[C@@]2(C)[C@H]([C@H](OC(=O)c3ccccc3)[C@]3(O)C[C@H](O)C(C)=C1C3(C)C)[C@]1(OC(C)=O)CO[C@@H]1C[C@@H]2O [Baccatin III] | -0.4 | 3.2 | 3.6 | 11.3 | 0.8 | 111 | 81.3 | 83.6 | 103 | 120
CC(=O)CC1CCCCN1 (stereo not given) | -18 | -11.2 | -14.7 | 5.4 | 6.7 | 102 | 90.9 | 91.4 | 69.4 | 118
CN1CC[C@@]2(C)c3cc(O)ccc3N(C)[C@@H]12 | 18.4 | 6.9 | 7.2 | 14.6 | 22 | 126 | 94.5 | 92.7 | 121 | 69.5
O=C(O)CCCOc1ccc(Cl)cc1Cl | 8.3 | 8.3 | 0 | -4.6 | 0 | 92.2 | 96 | 140 | 81.2 | 57.7

Reprinted from the entries so far for reference:
Structure (SMILES) | loss of total cells ([1]; 1.39 µM) [%] | loss of total cells ([1]; 2.78 µM) [%] | loss of total cells ([1]; 5.56 µM) [%] | loss of total cells ([1]; 11.11 µM) [%] | loss of total cells ([1]; 22.22 µM) [%] | synaptosome phagocytosis ([2]; 1.39 µM) [%] | synaptosome phagocytosis ([2]; 2.78 µM) [%] | synaptosome phagocytosis ([2]; 5.56 µM) [%] | synaptosome phagocytosis ([2]; 11.11 µM) [%] | synaptosome phagocytosis ([2]; 22.22 µM) [%]
C[C@H](N)[C@H](O)c1ccc(O)c(O)c1 | 6.2 | -4.4 | -7 | 2 | 0.3 | 83.7 | 89 | 86.8 | 96.1 | 84
COc1cc2c(cc1O)C[C@H]1c3c(cc(O)c(OC)c3-2)CCN1C | -22.1 | -5.4 | 8.1 | 10.1 | 5.2 | 110 | 69.9 | 102 | 91.2 | 77.5
O=C(O)CF | -2.5 | 1.8 | 10.9 | -17.2 | -4.5 | 90.9 | 100 | 84.8 | 118 | 131
C[C@@H]1CC[C@@]2(OC1)O[C@H]1[C@@H](O)[C@H]3[C@@H]4CC[C@H]5C[C@@H](O[C@@H]6O[C@H](CO)[C@H](O[C@@H]7O[C@H](CO)[C@@H](O)[C@H](O[C@@H]8OC[C@@H](O)[C@H](O)[C@H]8O)[C@H]7O[C@@H]7O[C@H](CO)[C@H](O)[C@H](O[C@@H]8O[C@H](CO)[C@@H](O)[C@H](O)[C@H]8O)[C@H]7O)[C@H](O)[C@H]6O)[C@H](O)C[C@]5(C)[C@H]4CC[C@]3(C)[C@H]1[C@@H]2C | -28.6 | 4 | -5.3 | 3.2 | 0.4 | 85.7 | 113 | 103 | 100 | 71.6
O=C1CN=C(c2ccccc2Cl)c2cc([N+](=O)[O-])ccc2N1 | -21.4 | -2 | 26 | -13.5 | -16.7 | 92.5 | 106 | 136 | 83.4 | 98.4
CCC1(CC)C(=O)C=CNC1=O | 5.4 | 1.8 | 5.8 | -9.6 | 19.7 | 70.8 | 96.4 | 84.4 | 99.3 | 89.8
C/C=C/c1ccc2c(c1)OCO2 | -20.5 | 4.7 | 13.9 | 20.3 | 0.7 | 104 | 58.1 | 117 | 142 | 94.4
CC(=O)O[C@H]1C(=O)[C@@]2(C)[C@H]([C@H](OC(=O)c3ccccc3)[C@]3(O)C[C@H](O)C(C)=C1C3(C)C)[C@]1(OC(C)=O)CO[C@@H]1C[C@@H]2O [Baccatin III] | -0.4 | 3.2 | 3.6 | 11.3 | 0.8 | 111 | 81.3 | 83.6 | 103 | 120
